PMC3091666
No constants are given. Whether binding was seen depends on the method and setting. Some binding calls cover weakened binding; strength is not graded here.

Sequences of proteins named here, by UniProt entry; tags and fusion partners are left off.
UniProt P05852: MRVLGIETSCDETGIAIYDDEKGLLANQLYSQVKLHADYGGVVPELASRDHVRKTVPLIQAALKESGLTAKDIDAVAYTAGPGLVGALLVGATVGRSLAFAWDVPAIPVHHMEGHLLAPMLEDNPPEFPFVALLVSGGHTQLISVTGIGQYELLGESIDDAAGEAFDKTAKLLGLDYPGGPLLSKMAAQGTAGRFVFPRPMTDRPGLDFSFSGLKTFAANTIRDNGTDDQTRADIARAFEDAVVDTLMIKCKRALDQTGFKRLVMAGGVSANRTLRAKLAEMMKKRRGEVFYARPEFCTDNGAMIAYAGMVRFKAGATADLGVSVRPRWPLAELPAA

Target: E. coli YgjD (E. coli K-12) (UniProt P05852)
Experiment: two-hybrid; yeast two-hybrid; baits fused to the Gal4 DNA binding domain, pGADT7g vector as negative control for autoactivation; conducted as described by Rajagopala et al. 2007

binding: binds
Substance: E. coli YeaZ (from UniProt P76256 1-231)
